Measured values from PubChem BioAssay AID1508600 (Functional Genomics Laboratory (NCATS/FGL), 2020).
About 3,700 (7%) of roughly 53,000 sequences were called active.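 The calls were made as follows: active = gene knockdowns whose robust z-score for IL-1 alpha signal is at least 2 or at most -2, so actives lie on both sides; inactive = the rest.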 The list shows a part of the results.

assay: Components of the Cytosolic LPS Sensing Pathway: Gene Identification via Genome-wide siRNA Screen; conditions: RAW264.7 macrophages, IL-1a HTRF, actives lie on both sides, screened at 100 nM (by protocol), cells primed 5 h with Pam3CSK4 first;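 also: robust z of the log signal after scaling to non-targeting control siRNA wells of the plate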
Summary of the method: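 Supernatant IL-1a by HTRF from RAW264.7 cells primed with Pam3CSK4 (5 hours) and transfected with LipidA (24 hour) after 48h siRNA knockdown at 100 nM; cell viability checked with CellTiter-Glo.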

| Sequence | z-score |
| --- | --- |
| GCGUUCACGGUCAAAAAAUTT against Fbxw10 | inactive: -0.586 |
| GCGCAACUAACUCACAACATT against 4930556L07Rik | inactive: 0.705 |
| GGACCCUCUGCUCUUCAUUTT against Slc4a9 | inactive: 2 |
| CCUUUAGCAUAAUAGGAAUTT against 9230109A22Rik | inactive: -0.561 |
| GCUUCUCUCUUCAUCUAUGTT against Olfr524 | inactive: -0.685 |
| CGAUACCUUUAGUUGACUATT against Hcrtr2 | inactive: -0.445 |
| GCUUGCUAUACGUGGAGAUTT against H2az1 | inactive: -0.803 |
| GGACCUGUCCAUCUUCAUCTT against Scn1b | active: 3.87 |
| GGGAAUACUGUGAACACCGTT against Gm4983 | inactive: 0.592 |
| GCCAAUAAUUGUCACACAUTT against Adgrg3 | inactive: 1.94 |
| GCAAUGAACUAUGAAGGCATT against Npm1 | inactive: -0.32 |
| GGUGAGAACUCAGAUAAGCTT against Txk | inactive: -1.06 |
| CCUUUGAAUCCCAGGUUCATT against Lmo1 | active: 3.05 |
| AAAUUCUGCCUGACGAGAUTT against Scgb3a1 | inactive: 0.599 |
| GGUAUAGAUCAGAAGAACUTT against Bfar | inactive: 1.81 |
| GGUCUACCACUUCAACUUCTT against Sema7a | inactive: 0.495 |
| GCUCCCACCCUUAAAUAAUTT against Ptgr1 | inactive: -1.26 |
| GGCUCAUGGAAAACUCUAUTT against Hspa9 | active: 2.24 |
| GGUCUACCCAUGACCUACUTT against Nme4 | inactive: -1.45 |
| GGAUGUGAAGAUCUAUCUUTT against Itm2c | inactive: 0.573 |
| GUACGAAGACUUCUCUAGUTT against Ankrd33b | inactive: 0.101 |
| GGUACCUGUUUGUUUUACATT against Epb41l4b | inactive: 0.75 |

| Sequence | z-score |
| --- | --- |
| UGGCCUGAUCAUGAACAGUTT against S100a7a | inactive: 1.21 |
| GCAACAACAACAUUGCCUATT against Tmsb15l | inactive: -0.448 |
| GGGAAACUCAAUGUAGAUGTT against Arhgap5 | inactive: -1.01 |
| GGCUUGUUAAUGAAUGCACTT against Ankrd9 | inactive: -0.894 |
| GGUGCUAAAGUCAAAAAACTT against Fras1 | inactive: 0.218 |
| CCCGGGUGCAAAACAUUCATT against Cenpu | inactive: 0.939 |
| GGUGUACCAGCAAACUUUUTT against Nhlh2 | inactive: 0.117 |
| GGGAAUUGGCUAUCACAGATT against Retreg3 | inactive: 0.23 |
| GCCACACUCCAUAAUUAGGTT against Fam117b | inactive: 1.15 |
| GCCAUUUCAUACAUUUUACTT against Atg2b | inactive: -0.332 |
| GGUCUAGCAGCAAUGAAUGTT against Ggt6 | inactive: -0.693 |
| GCAGUGUAUUGGUAAUCAATT against Olfr630 | inactive: 1.44 |
| GGUCGAUUUGUCCUUGUGCTT against Rassf7 | active: -2.04 |
| GCUUAAAGUGCAUCGCCAATT against Stc1 | inactive: 0.0751 |
| GGAUGUGUUGUCUUUGGAUTT against Nwd1 | inactive: -0.658 |
| CCCGGAUCUGAAAACUGAUTT against Capns1 | inactive: 0.192 |
| GGAGAGCUCUAUGGAUCGATT against Fgf16 | inactive: 0.784 |
| GGAUGUGAAGAGCAAUCAGTT against Pgp | inactive: -1.91 |
| GCCCAUGCCUAUGCUAAUGTT against A530095I07Rik | inactive: -0.225 |
| GGUCUUUUCGAACUCUUCATT against Senp2 | inactive: 0.488 |
| GGCUGCUGUCAUUAUUUGUTT against Terf2 | inactive: -0.768 |
| GGCCCUUCAUUUAGUGGAUTT against Trim44 | inactive: 0.292 |

| Sequence | z-score |
| --- | --- |
| GGACCAAGGCUUUAUGAACTT against Crygn | inactive: 0.404 |
| GCGACUAUCUAACACGAGUTT against Sacm1l | inactive: -1.07 |
| GGGACAGAUACUUCAGAAGTT against Kcnv1 | inactive: 0.0736 |
| GGAAUUCUUCCCAUCUGUATT against Lmf2 | inactive: 0.409 |
| GGUUUUCUACUUCUCAAUUTT against Sec61g | inactive: 0.144 |
| GGUAAUUUUGAAUGUGGCATT against Lemd2 | inactive: -1.73 |
| GGUAAAAAACUGUCCUUCATT against Zfp788 | inactive: 0.072 |
| GCUAAUCUAUCCGUGUCCUTT against B3gnt3 | inactive: -0.522 |
| GGAACACUGGAAGAAAGAUTT against Arhgap35 | inactive: -1.21 |
| CCAGAUGCAUCAAAAUUUUTT against Tbc1d15 | inactive: -0.415 |
| GCUAUUCAAUGGACCAGAATT against Olfr490 | active: -2.26 |
| GGAGAAAAGGAUGUUGUUATT against Eepd1 | inactive: 1.71 |
| GGCUAUUGUACAACUUAUATT against Pafah1b2 | active: 2.1 |
| GGCCAGCAAAUUCAAAUCATT against Sp4 | inactive: 0.234 |
| GGUUAAUUGUCGACUAGACTT against Pcdhgb5 | inactive: 0.803 |
| GCUCGCCAAUAUGUAUAUGTT against Fam120c | inactive: -0.37 |
| GGUAUUGGAUAACAGAAUUTT against Rasgrp1 | inactive: -0.575 |
| GCGGAUGUUGAAAUGUUUATT against Shprh | inactive: 0.254 |
| GCGCACACCAUGGAUAGAATT against Sult2a8 | inactive: -0.836 |
| UGCAACUGUUCAGAUUCUGTT against Olfr149 | inactive: -1.21 |
| GGAAGAAAUGUUUUUUGGUTT against Hivep2 | inactive: -0.188 |
| CGUAUCAGAUAUAUCACAUTT against Isoc1 | inactive: 0.204 |

| Sequence | z-score |
| --- | --- |
| CGGGAAACUUAGGUAUGAUTT against Olfr1009 | active: -3.05 |
| CGGGUGAGUGGAAAAACCATT against Atg9b | inactive: -0.282 |
| GCAUAUGGUCCACUAAAAATT against Kcnj4 | inactive: 0.294 |
| GCUUAAAUUGACCUCAGUGTT against Nmi | inactive: -1.78 |
| GGGAGUUAUGUUGGUAUCATT against 1700029F12Rik | inactive: -1.38 |
| GCUUCUGAAUUACAAAGCUTT against Cmah | inactive: -0.205 |
| CCACGAGAAUGUUGAUAACTT against A830031A19Rik | inactive: 0.274 |
| GCGGUCCAUCAUCAAACUCTT against Rpap2 | inactive: -1.3 |
| GGGAAUGUGUGCCUUGUUGTT against Olfr16 | inactive: -0.899 |
| CCGCACAUGCUCUCAAAUATT against Polr3d | inactive: -1.25 |
| GGCCAAGACACCCUUGUUUTT against Zfp524 | inactive: -0.376 |
| CCAAACCACCUACCGUAAATT against Rnase9 | inactive: -0.681 |
| CGAGAUUGACUCUAUUGGCTT against Psmc5 | inactive: -1.53 |
| GGGAGAGUUCCAUAAAUUGTT against Narf | inactive: -0.728 |
| GGAGCUAAUGGAAAACGGCTT against Tinagl1 | inactive: 0.182 |
| GGUAGGAAACCUCUCAGAGTT against Kcnc1 | inactive: 0.85 |
| GGCAUUUUUCUUAGUGAUCTT against Olfr1277 | active: -2.04 |
| GGUCAACAUUUGCUGUAAGTT against Inhba | inactive: -0.599 |
| GGACAUUGACACUACUCCATT against Cyp2c55 | inactive: -0.519 |
| GGUCUUCGUGUCGACAUUCTT against Gpr153 | inactive: -1.02 |
| GGCUCUUCAUGAUCCUUUGTT against Clic4 | inactive: -1.21 |
| GCUAAUGGACGAUUUGAAGTT against Ube2j1 | inactive: -0.378 |

| Sequence | z-score |
| --- | --- |
| GCCGGAUCCGAACAAGGAUTT against Pus7l | inactive: 0.656 |
| GGUGCUACAAGAAAUGUCUTT against F13b | inactive: -0.435 |
| UCUUUGGCAACACUACCAUTT against Olfr1386 | inactive: 0.366 |
| GGCAAGGUAGAGAUCAUCATT against Ggt5 | inactive: -1.1 |
| GGAUUGUGGCCUUCUUUGATT against Bcl2 | inactive: 0.217 |
| GCCAUGACUAUUCCAGCUUTT against Lgals4 | inactive: -0.456 |
| GGAUAAGAGGGUGAAGUCATT against Cdyl2 | inactive: -1.06 |
| GGUGCUGAUCCUUCAAAGGTT against Lrrc66 | inactive: -0.205 |
| CCUCUCAACCACUGACUGATT against Gpatch4 | inactive: 0.836 |
| GGGCUUCUCCUAAUUCAGATT against Armcx3 | inactive: 1.09 |
| GGAAGUGAGGAAGUGACAUTT against 1810009N02Rik | inactive: -1.34 |
| GGAGUUUUCUCGAAACUUCTT against Fate1 | inactive: 0.993 |
| GGAGUUCCUAUUUAAUCCCTT against Hoxb8 | inactive: -0.419 |
| GCAAUGCACCAUUAGCAGCTT against Stard8 | inactive: -1.72 |
| GUACAAGUGUGGACCCUUATT against Chchd2 | inactive: 0.409 |
| GCAGAUGACUAUCGGAAGUTT against Usp53 | active: 2.19 |
| GGAACAUCGUGACUUUAUATT against Uhmk1 | inactive: 1.06 |
| GGGUGAUACUGACAAUCAUTT against Fhod1 | inactive: 0.624 |

Nothing new here: an excerpt of the list.

| Sequence | z-score |
| --- | --- |
| CCACGAGAAUGUUGAUAACTT against A830031A19Rik | inactive: 0.274 |
| GCGGUCCAUCAUCAAACUCTT against Rpap2 | inactive: -1.3 |
| GGGAAUGUGUGCCUUGUUGTT against Olfr16 | inactive: -0.899 |
| CCGCACAUGCUCUCAAAUATT against Polr3d | inactive: -1.25 |
| GGCCAAGACACCCUUGUUUTT against Zfp524 | inactive: -0.376 |
| CCAAACCACCUACCGUAAATT against Rnase9 | inactive: -0.681 |
| CGAGAUUGACUCUAUUGGCTT against Psmc5 | inactive: -1.53 |
| GGGAGAGUUCCAUAAAUUGTT against Narf | inactive: -0.728 |
| GGAGCUAAUGGAAAACGGCTT against Tinagl1 | inactive: 0.182 |
| GGUAGGAAACCUCUCAGAGTT against Kcnc1 | inactive: 0.85 |
| GGCAUUUUUCUUAGUGAUCTT against Olfr1277 | active: -2.04 |
| GGUCAACAUUUGCUGUAAGTT against Inhba | inactive: -0.599 |
| GGACAUUGACACUACUCCATT against Cyp2c55 | inactive: -0.519 |
| GGUCUUCGUGUCGACAUUCTT against Gpr153 | inactive: -1.02 |
| GGCUCUUCAUGAUCCUUUGTT against Clic4 | inactive: -1.21 |
| GCUAAUGGACGAUUUGAAGTT against Ube2j1 | inactive: -0.378 |
| GCCGGAUCCGAACAAGGAUTT against Pus7l | inactive: 0.656 |
| GGUGCUACAAGAAAUGUCUTT against F13b | inactive: -0.435 |
| UCUUUGGCAACACUACCAUTT against Olfr1386 | inactive: 0.366 |
| GGCAAGGUAGAGAUCAUCATT against Ggt5 | inactive: -1.1 |
| GGAUUGUGGCCUUCUUUGATT against Bcl2 | inactive: 0.217 |
| GCCAUGACUAUUCCAGCUUTT against Lgals4 | inactive: -0.456 |
| GGAUAAGAGGGUGAAGUCATT against Cdyl2 | inactive: -1.06 |
| GGUGCUGAUCCUUCAAAGGTT against Lrrc66 | inactive: -0.205 |
| CCUCUCAACCACUGACUGATT against Gpatch4 | inactive: 0.836 |
| GGGCUUCUCCUAAUUCAGATT against Armcx3 | inactive: 1.09 |
| GGAAGUGAGGAAGUGACAUTT against 1810009N02Rik | inactive: -1.34 |
| GGAGUUUUCUCGAAACUUCTT against Fate1 | inactive: 0.993 |
| GGAGUUCCUAUUUAAUCCCTT against Hoxb8 | inactive: -0.419 |
| GCAAUGCACCAUUAGCAGCTT against Stard8 | inactive: -1.72 |
| GUACAAGUGUGGACCCUUATT against Chchd2 | inactive: 0.409 |
| GCAGAUGACUAUCGGAAGUTT against Usp53 | active: 2.19 |
| GGAACAUCGUGACUUUAUATT against Uhmk1 | inactive: 1.06 |
